For the assay, the target named is Med14 (Rgr1/Med14), subunit of the Mediator complex (S. cerevisiae (endogenous in yeast)) (UniProt P19263). Put plainly: co-IP; WCEs of yeast strains expressing LexA-Med6p derivatives, DEAE column fractionation to enrich Pol II holoenzyme; immunopurified with beads-coupled anti-Med14 antibody; western with anti-LexA and anti-Med14.

By UniProt entry, the sequences of proteins in these tests, tags left out. Where a name states a change or a piece, a line headed by the entry shows the natural chain unless it says otherwise.
UniProt P19263: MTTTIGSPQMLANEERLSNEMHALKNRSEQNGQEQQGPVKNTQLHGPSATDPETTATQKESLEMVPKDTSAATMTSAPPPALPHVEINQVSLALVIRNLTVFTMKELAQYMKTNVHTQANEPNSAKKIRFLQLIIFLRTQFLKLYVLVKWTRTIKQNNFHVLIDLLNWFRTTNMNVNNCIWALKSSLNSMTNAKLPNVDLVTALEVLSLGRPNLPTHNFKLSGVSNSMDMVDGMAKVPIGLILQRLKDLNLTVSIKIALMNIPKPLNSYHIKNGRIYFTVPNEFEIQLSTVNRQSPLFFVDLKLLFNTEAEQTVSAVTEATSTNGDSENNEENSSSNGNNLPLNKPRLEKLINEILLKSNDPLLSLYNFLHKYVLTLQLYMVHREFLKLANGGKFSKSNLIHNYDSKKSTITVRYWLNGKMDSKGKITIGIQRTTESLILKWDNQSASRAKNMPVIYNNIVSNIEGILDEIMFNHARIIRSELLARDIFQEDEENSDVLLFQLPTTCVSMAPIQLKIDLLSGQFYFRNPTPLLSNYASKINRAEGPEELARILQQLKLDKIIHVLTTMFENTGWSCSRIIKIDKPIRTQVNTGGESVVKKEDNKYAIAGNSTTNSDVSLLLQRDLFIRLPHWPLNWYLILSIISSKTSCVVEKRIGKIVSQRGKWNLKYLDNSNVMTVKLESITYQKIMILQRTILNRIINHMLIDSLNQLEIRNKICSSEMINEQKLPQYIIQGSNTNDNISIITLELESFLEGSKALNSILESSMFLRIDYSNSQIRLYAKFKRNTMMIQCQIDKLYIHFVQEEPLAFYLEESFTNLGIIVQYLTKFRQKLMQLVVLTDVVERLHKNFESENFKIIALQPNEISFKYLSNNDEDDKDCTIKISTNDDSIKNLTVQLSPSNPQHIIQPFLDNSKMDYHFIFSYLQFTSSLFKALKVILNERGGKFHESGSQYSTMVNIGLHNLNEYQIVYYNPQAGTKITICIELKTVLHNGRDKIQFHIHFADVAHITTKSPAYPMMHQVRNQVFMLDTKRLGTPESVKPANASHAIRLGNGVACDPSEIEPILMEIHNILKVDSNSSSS
UniProt P38782: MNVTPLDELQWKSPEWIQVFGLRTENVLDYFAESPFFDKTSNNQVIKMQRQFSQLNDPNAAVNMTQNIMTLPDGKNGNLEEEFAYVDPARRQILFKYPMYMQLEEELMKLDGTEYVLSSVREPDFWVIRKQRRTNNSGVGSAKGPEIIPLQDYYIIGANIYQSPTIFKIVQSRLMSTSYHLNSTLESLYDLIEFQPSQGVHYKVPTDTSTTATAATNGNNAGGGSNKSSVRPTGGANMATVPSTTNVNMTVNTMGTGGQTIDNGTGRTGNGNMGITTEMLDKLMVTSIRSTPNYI

Results are given in words; binding and its absence hold for the method and conditions named. Binding seen in cells or lysates may run through a third protein. A result given as binding can be weak or reduced; the word gives no strength.

Turning to “LexA-fused Med6p-Δ5 (deletion of amino acids 125–134) (from UniProt P38782)”, the binding result was “binds”.

Turning to “LexA-fused Med6p-Δ6 (deletion of amino acids 157–166) (from UniProt P38782)”, the binding result is “binds”.

Values taken from paper PMC5818915.
